From the M2OR odorant receptor database come the findings set out here.

Holding throughout (conditions): stereoisomer not certain
Test [1] concerns the target T1, OR13C2 (Homo sapiens) (UniProt Q8NGS9).
T1 sequence (whole entry): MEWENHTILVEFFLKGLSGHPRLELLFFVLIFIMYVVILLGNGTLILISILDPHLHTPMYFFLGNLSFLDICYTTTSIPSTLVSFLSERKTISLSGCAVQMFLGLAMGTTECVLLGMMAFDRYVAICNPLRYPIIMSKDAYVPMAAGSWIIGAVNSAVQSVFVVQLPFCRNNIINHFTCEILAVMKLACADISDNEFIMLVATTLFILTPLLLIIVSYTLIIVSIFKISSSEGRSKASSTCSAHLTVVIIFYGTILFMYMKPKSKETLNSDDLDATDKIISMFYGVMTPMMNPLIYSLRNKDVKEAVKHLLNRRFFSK
In short, it runs like this:
(§1)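 Each entry records the cell line, G-protein, co-transfected protein and tags used. Methods varied with the source, often transient luciferase assays in mammalian cell lines. A receptor–molecule pair is called responsive (active) if the original authors judged its signal statistically different from baseline and non-responsive (inactive) otherwise.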

In test [2] the target is T2, OR13C3 (Homo sapiens) (UniProt Q8NGS6).
T2 sequence (whole entry): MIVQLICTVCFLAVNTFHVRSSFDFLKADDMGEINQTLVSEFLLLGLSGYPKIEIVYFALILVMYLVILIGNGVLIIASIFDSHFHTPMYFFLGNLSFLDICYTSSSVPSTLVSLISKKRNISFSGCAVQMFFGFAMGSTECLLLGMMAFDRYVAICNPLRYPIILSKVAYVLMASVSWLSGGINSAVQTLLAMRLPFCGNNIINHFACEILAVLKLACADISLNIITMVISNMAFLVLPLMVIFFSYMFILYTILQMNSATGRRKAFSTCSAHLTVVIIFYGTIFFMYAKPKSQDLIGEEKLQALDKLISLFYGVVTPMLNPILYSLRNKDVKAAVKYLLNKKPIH
Put shortly:
as §1

The target of test [3] is T3, OR13C4 (Homo sapiens) (UniProt Q8NGS5).
T3 sequence (whole entry): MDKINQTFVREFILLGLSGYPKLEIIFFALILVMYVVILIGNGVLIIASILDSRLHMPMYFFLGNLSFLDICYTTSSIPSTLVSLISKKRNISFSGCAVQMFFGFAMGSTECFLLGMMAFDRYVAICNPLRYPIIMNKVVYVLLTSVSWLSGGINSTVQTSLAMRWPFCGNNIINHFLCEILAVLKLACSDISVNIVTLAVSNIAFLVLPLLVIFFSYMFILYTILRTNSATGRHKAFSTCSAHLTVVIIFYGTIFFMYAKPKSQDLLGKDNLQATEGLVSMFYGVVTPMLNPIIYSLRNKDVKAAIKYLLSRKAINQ
In short, it runs like this: as §1

Test [4] has as its target T4, OR13C8 (Homo sapiens) (UniProt Q8NGS7).
T4 sequence (whole entry): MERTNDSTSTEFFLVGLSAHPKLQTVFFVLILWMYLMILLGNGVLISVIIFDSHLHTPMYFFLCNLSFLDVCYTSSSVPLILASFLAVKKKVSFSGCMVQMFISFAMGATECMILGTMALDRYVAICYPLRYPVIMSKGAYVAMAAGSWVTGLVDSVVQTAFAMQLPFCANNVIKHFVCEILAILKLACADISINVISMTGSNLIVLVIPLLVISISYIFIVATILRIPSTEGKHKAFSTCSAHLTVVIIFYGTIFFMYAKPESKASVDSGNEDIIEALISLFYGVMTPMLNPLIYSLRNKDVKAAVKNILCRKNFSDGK
Put shortly: as §1

Test [5] addresses T5, OR13H1 (Homo sapiens) (UniProt Q8NG92).
T5 sequence (whole entry): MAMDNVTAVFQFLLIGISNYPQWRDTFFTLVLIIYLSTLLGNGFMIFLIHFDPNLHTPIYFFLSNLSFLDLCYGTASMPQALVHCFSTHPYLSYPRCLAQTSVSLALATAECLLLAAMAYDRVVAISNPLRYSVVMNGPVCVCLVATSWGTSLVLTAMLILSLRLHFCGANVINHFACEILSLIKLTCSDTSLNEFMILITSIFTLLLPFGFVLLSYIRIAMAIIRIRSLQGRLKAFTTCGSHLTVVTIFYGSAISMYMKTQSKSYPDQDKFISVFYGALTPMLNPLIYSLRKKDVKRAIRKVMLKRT
Put shortly: as §1

Structures are written as SMILES. The entries are a selection whose mix differs from that of the whole data set. The calls were merged from several studies; some rest on single wells.

For the compound `C=C(C)C1CCC2=CC(=O)CC(C)C2(C)C1` (stereo not given), the “odorant receptor agonist call” value in test [1] is “inactive”.
Turning to `COc1cc(C)ccc1O`, the “odorant receptor agonist call” value in test [1], in test [2], in test [3], in test [4] and in test [5] was “inactive” each time.
For the compound `CC12C=CCC1C1CCC3=CC(=O)CCC3(C)C1CC2` (stereo not given), the “odorant receptor agonist call” value in test [1], in test [2], in test [3], in test [4] and in test [5] was “inactive” in each case.
As to `CCCCO`, the “odorant receptor agonist call” value in test [1], in test [2], in test [3], in test [4] and in test [5] was “inactive” throughout.
As for `CC(C)C(=O)O`, the “odorant receptor agonist call” value in test [1], in test [2], in test [3], in test [4] and in test [5] was “inactive” each time.
`COc1ccccc1O`: the “odorant receptor agonist call” value in test [1], in test [2], in test [3], in test [4] and in test [5] was “inactive” in each case.
As for `c1ccc(Oc2ccccc2)cc1`, the “odorant receptor agonist call” value in test [1], in test [2], in test [3], in test [4] and in test [5] was “inactive” throughout.
For the compound `CC(C)CCC(=O)O`, the “odorant receptor agonist call” value in test [1], in test [2], in test [3], in test [4] and in test [5] was “inactive” in each case.
For `CCCCCC(=O)O`, the “odorant receptor agonist call” value in test [1], in test [2], in test [3], in test [4] and in test [5] was “inactive” each time.
For the compound `CC(C)C=O`, the “odorant receptor agonist call” value in test [1], in test [2], in test [4] and in test [5] was “inactive” throughout. Moreover, the “odorant receptor agonist call” value in test [3] is “active”.
Take `CCCCCCCCCC=O`: the “odorant receptor agonist call” value in test [1], in test [2], in test [3], in test [4] and in test [5] was “inactive” each time.
Take `O=C1CCCCCCCCCCCCCCO1`: the “odorant receptor agonist call” value in test [1], in test [2], in test [3], in test [4] and in test [5] was “inactive” throughout.
With `CCCCCC(C)=O`, the “odorant receptor agonist call” value in test [2], in test [3], in test [4] and in test [5] was “inactive” in each case.
On to `CC1COCc2cc3c(cc21)C(C)(C)C(C)C3(C)C` (stereo not given), for which the “odorant receptor agonist call” value in test [1] and in test [4] was “inactive” each time. In addition, the “odorant receptor agonist call” value in test [2], in test [3] and in test [5] was “active” throughout.
In the case of `CC(C)CC(=O)O`, the “odorant receptor agonist call” value in test [1], in test [2], in test [3], in test [4] and in test [5] was “inactive” in each case.
For the compound `CCCCCOC(C)=O`, the “odorant receptor agonist call” value in test [1], in test [2], in test [3] and in test [5] was “inactive” each time. The “odorant receptor agonist call” value in test [4] is “active”.
For `CC=Cc1ccc(O)c(OC)c1`, the “odorant receptor agonist call” value in test [1] and in test [4] was “active” in each case. The “odorant receptor agonist call” value in test [2], in test [3] and in test [5] was “inactive” throughout.
